Measured values reported in publication PMC8988195.
No constants are given. Whether binding was seen depends on the method and setting.

Sequences of proteins named here, by UniProt entry; tags and fusion partners are left off. A change or cut given only in a name is not applied to a line headed by its entry. Residues count along the entry.
UniProt P02769, residues 25-607: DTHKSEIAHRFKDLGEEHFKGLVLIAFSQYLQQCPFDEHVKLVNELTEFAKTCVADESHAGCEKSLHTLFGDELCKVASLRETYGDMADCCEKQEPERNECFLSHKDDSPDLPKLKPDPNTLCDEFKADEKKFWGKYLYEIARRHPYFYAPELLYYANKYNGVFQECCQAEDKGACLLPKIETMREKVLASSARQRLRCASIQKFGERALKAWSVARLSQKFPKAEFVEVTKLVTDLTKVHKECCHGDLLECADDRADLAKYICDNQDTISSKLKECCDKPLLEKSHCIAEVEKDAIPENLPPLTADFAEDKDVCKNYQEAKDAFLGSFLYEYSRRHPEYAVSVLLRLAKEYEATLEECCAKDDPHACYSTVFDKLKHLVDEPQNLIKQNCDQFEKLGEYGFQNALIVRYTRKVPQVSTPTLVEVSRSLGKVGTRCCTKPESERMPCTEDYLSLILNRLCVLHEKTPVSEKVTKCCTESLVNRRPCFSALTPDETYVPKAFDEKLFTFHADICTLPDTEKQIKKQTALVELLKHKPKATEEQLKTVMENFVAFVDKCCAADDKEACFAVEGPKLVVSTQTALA
UniProt P04003: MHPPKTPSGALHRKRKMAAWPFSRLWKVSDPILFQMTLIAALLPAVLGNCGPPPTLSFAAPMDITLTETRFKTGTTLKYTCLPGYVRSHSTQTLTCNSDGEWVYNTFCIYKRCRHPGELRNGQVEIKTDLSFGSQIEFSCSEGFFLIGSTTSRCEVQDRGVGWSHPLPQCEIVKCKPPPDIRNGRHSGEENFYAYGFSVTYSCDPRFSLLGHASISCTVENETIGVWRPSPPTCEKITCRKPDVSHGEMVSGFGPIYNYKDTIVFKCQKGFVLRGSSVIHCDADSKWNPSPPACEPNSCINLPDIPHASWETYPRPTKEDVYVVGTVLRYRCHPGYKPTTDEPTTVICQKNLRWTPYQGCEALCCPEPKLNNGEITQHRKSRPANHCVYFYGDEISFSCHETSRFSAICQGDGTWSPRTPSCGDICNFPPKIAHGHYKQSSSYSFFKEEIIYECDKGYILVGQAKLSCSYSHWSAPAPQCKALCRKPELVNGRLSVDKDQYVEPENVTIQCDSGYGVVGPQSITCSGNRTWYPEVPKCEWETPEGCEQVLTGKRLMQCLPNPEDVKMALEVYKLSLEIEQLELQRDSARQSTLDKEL

Target: bovine serum albumin (bovine) (UniProt P02769)
Experiment: ELISA; plates coated with recombinant proteins (1 μg/ml) or BSA; blocked with PBS/2% BSA; normal human serum (0–100% in PBS) for 90 min at 37°C; detected with anti-FH, anti-C4BP or anti-PLG and HRP conjugate, read at 450 nm; only the target purified

C4 Binding Protein (from UniProt P04003 49-597; P20851 18-252) (complex)
binding: no binding
